Values quoted from earlier work as cited in EP1479382A1, “Oral pharmaceutical compositions containing taxanes and methods for treatment employing the same” (IVAX Research, Inc., priority 1999, dated 2000).

solubility in water: only slightly soluble in water
SMILES: CC(=O)O[C@H]1C(=O)[C@@]2(C)[C@H]([C@H](OC(=O)c3ccccc3)[C@]3(O)C[C@H](OC(=O)[C@H](O)[C@@H](NC(=O)c4ccccc4)c4ccccc4)C(C)=C1C3(C)C)[C@]1(OC(C)=O)CO[C@@H]1C[C@@H]2O [paclitaxel]
